PubChem BioAssay AID504793 – Drosophila RNAi Screening Center – 2011

Test: 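Genes required for cells to halt at G2/M after double-strand DNA breaks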 (primary screen)
System: Drosophila S2R+ cells
Knock-down reagent: long dsRNA against Drosophila genes, about 0.25 µg dsRNA per well
Duration: 4 days of dsRNA, then 4 hours of drug before read-out
Treatment: doxorubicin 0.5 µM for 4 hours to cause double-strand breaks, in cells also given a low, harmless dose of dsRNA against nbs to sensitise the assay
Read-out: 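Per-well count of mitotic cells stained for phospho-histone H3 after doxorubicin exposure, used as mitotic index; counts are raw and not normalised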
Scale: mitotic cells: higher = more cells in mitosis, weaker G2 arrest
Rule for the call: 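Genes are called active only when high mitotic counts were reproduced with independent dsRNAs and mitosis was checked for delay without damage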
Meaning of the calls: active = confirmed in follow-up tests; inactive = not confirmed
In all, the deposit lists about 23,000 reagents; below is an unselected part of those that have a named target and a result. Over the whole deposit, 62 (0.27%) are marked active. 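Calls come from follow-up tests whose scores are not deposited, so confirmed genes may have low counts here; counts are not normalised per plate.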 The raw values are shown without normalisation.

What is on record for Atg7 (GeneID 37141) [SID104185533]?
mitotic cells, replicate 1: 6; outcome: inactive

With Atg7 (GeneID 37141) [SID104186729], what was measured?
mitotic cells, replicate 1: 4; outcome: inactive

With CG17294 (GeneID 34155) [SID104182388], how do the results read?
mitotic cells, replicate 1: 10; outcome: inactive

How did the screen score Sec16 (GeneID 32209) [SID104199580]?
mitotic cells, replicate 1: 10; outcome: inactive

With CG12420 (GeneID 41249) [SID104194306], how do the results read?
mitotic cells, replicate 1: 9; outcome: inactive

For SMC5 (GeneID 326215) [SID104191641], what does the deposit list?
mitotic cells, replicate 1: 3; outcome: inactive

For lap (GeneID 40863) [SID104192420], how do the results read?
mitotic cells, replicate 1: 9; outcome: inactive

For lap (GeneID 40863) [SID104206759], how do the results read?
mitotic cells, replicate 1: 5; outcome: inactive

What is on record for Snx16 (GeneID 37015) [SID104186776]?
mitotic cells, replicate 1: 6; outcome: inactive

With cnk (GeneID 36952) [SID104187387], how do the results read?
mitotic cells, replicate 1: 7; outcome: inactive

In a second layout: 3 of the entries above.
| target gene | PubChem SID | mitotic cells, replicate 1 | mitotic cells, replicate 2 | outcome |
| --- | --- | --- | --- | --- |
| Atg7 (GeneID 37141) | SID104185533 | 6 | – | inactive |
| Atg7 (GeneID 37141) | SID104186729 | 4 | – | inactive |
| CG17294 (GeneID 34155) | SID104182388 | 10 | – | inactive |

Continued:
With gus (GeneID 35478) [SID104184677], how do the results read?
mitotic cells, replicate 1: 5; outcome: inactive

Which result is listed for gus (GeneID 35478) [SID104184678]?
mitotic cells, replicate 1: 6; mitotic cells, replicate 2: 11; outcome: inactive

With gus (GeneID 35478) [SID104205697], what does the deposit list?
mitotic cells, replicate 1: 6; outcome: inactive

With Flo1 (GeneID 36726) [SID104187219], how do the results read?
mitotic cells, replicate 1: 6; outcome: inactive

For Flo1 (GeneID 36726) [SID104206666], what was measured?
mitotic cells, replicate 1: 6; outcome: inactive

With nito (GeneID 35756) [SID104185735], what was measured?
mitotic cells, replicate 1: 7; outcome: inactive

For Mad1 (GeneID 35954) [SID104187353], what was measured?
mitotic cells, replicate 1: 5; outcome: inactive

What is on record for BBS8 (GeneID 33217) [SID104180152]?
mitotic cells, replicate 1: 3; outcome: inactive

For BBS8 (GeneID 33217) [SID104206302], what does the deposit list?
mitotic cells, replicate 1: 10; outcome: inactive

With Uck (GeneID 42894) [SID104195820], how do the results read?
mitotic cells, replicate 1: 12; outcome: inactive

For mRpL46 (GeneID 38230) [SID104188183], what was measured?
mitotic cells, replicate 1: 7; outcome: inactive

What did the screen give for CG32985 (GeneID 326244) [SID104182426]?
mitotic cells, replicate 1: 4; outcome: inactive

With CG32985 (GeneID 326244) [SID104203204], what was measured?
mitotic cells, replicate 1: 8; outcome: inactive
